No constants are given. Whether binding was seen depends on the method and setting. In cells and extracts the contact can be indirect. Some entries that bind do so weakly or less than the wild type.

Experiment [1] addresses recombinant CHI3L1 protein (rCHI3L1), P36222. Nature of the experiment: co-IP; Gastric and breast cancer cells incubated with rCHI3L1 for 3 h; cell membrane proteins immunoprecipitated with anti-CHI3L1 or isotype IgG and analysed by western blotting; cells not treated with rCHI3L1 as controls; only the target purified. Conditions: remark: other sources report otherwise.
The experiment “GST (glutathione S …)” has as its target GST (glutathione S transferase)-conjugated CHI3L1 protein, P36222. In words: pull-down; Glutathione-Sepharose beads coupled with purified GST-CHI3L1 (or GST) incubated with solubilized membrane proteins of gastric and breast cancer cells for 1 h at 4 °C; washed with 50 mM HEPES-KOH, 150 mM NaCl, 1 mM MgCl2, 0.2% Triton-X-100, pH 7.2; 10% SDS-PAGE, Coomassie; differential band identified by mass spectrometry; only the target purified. Conditions: remark: other sources report otherwise.

B1: interleukin (IL)-13 receptor α2 chain (IL-13Rα2), Q14627 27-380 (receptor)
chain: DTEIKVNPPQDFEIVDPGYLGYLYLQWQPPLSLDHFKECTVEYELKYRNIGSETWKTIITKNLHYKDGFDLNKGIEAKIHTLLPWQCTNGSEVQSSWAETTYWISPQGIPETKVQDMDCVYYNWQYLLCSWKPGIGVLLDTNYNLFYWYEGLDHALQCVDYIKADGQNIGCRFPYLEASDYKDFYICVNGSSENKPIRSSYFTFQLQNIVKPLPPVYLTFTRESSCEIKLKWSIPLGPIPARCFDYEIEIREDDTTLVTATVENETYTLKTTNETRQLCFVVRSKVNIYCSDDGIWSEWSDKQCWEGEDLSKKTLLRFWLPFGFILILVIFVTGLLLRKPNTYPKMIPEFFCDT
B1: the binding entry (in experiment [1]; with GST (glutathione S …)) was “binds” throughout.

The values above are taken from publication PMC5286803.
